Data published in the supplement of paper PMC12819154, “High-throughput peptide-centric local stability assay extends protein–ligand identification to membrane proteins, tissues and bacteria” (Nature Structural & Molecular Biology, 2025).
Some of the results follow. Small differences around the control level are noise.

Chains of the proteins cited; added tags and fusions are not shown. Lines headed by an entry give the natural chain unless they say otherwise; changes in a name come on top.
UniProt P30085: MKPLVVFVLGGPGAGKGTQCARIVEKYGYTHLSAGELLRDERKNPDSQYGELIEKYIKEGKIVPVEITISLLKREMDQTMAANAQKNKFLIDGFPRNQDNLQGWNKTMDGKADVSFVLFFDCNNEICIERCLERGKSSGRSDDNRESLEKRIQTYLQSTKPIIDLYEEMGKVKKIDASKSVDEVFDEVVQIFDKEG
UniProt P28340: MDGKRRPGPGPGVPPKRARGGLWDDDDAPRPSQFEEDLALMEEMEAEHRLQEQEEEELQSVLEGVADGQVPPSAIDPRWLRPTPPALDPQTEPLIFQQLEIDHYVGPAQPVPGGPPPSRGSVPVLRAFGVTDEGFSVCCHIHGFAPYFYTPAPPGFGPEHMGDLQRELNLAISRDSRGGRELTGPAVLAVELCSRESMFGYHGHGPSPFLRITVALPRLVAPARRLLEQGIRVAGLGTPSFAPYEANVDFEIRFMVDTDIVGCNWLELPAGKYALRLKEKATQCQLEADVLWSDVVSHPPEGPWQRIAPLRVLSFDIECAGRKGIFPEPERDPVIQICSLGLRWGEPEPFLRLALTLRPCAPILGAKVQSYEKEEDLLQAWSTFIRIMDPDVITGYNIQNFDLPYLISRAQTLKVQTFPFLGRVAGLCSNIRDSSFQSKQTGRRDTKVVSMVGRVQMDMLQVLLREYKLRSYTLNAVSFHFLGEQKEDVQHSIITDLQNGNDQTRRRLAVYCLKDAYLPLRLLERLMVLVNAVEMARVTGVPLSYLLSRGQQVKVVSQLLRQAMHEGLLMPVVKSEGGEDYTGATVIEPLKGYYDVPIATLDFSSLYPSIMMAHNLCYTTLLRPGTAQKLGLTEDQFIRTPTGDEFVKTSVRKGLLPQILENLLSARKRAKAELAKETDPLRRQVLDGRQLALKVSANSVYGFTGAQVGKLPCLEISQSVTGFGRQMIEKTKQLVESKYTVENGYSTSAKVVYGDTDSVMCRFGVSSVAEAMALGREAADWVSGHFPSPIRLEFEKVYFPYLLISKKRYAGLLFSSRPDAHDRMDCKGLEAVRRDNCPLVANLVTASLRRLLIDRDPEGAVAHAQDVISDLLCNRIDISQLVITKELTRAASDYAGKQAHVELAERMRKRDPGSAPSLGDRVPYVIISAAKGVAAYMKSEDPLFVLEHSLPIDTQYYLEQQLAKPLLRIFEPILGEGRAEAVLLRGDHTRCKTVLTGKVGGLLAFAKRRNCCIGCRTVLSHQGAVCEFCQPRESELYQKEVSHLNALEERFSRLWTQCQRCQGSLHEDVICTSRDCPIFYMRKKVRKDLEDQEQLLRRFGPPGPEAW
UniProt P40222: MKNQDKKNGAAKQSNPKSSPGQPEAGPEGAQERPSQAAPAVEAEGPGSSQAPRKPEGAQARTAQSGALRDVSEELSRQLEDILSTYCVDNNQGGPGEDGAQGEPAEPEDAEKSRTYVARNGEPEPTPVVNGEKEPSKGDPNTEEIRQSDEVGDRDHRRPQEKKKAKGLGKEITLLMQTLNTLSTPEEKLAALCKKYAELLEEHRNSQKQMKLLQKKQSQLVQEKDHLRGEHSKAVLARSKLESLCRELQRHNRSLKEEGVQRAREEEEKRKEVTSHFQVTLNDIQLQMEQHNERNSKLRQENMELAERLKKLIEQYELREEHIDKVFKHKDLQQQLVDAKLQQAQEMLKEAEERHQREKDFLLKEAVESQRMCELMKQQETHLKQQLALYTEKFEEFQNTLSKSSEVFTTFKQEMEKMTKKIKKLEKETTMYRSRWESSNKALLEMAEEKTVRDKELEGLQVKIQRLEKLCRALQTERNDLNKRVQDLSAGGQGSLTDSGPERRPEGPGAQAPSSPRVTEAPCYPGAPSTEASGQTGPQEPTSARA
UniProt P35711: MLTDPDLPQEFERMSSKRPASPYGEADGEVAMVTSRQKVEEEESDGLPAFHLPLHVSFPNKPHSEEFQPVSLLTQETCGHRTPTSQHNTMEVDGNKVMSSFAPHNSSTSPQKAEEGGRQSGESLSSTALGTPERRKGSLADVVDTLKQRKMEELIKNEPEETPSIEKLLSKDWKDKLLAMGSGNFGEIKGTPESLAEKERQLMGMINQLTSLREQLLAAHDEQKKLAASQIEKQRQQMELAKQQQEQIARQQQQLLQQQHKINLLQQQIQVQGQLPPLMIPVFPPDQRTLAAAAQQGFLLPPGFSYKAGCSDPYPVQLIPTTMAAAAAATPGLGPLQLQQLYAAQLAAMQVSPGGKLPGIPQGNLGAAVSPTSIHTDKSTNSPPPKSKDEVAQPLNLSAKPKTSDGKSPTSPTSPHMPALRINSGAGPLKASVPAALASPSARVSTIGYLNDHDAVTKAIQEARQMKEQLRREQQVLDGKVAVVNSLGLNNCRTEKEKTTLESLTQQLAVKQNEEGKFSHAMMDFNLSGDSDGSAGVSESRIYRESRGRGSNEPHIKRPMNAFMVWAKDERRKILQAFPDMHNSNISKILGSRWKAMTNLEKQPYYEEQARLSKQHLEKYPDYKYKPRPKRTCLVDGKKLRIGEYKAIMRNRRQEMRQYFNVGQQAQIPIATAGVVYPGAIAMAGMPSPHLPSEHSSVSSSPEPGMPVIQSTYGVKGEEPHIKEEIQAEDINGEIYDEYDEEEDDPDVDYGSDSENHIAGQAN
UniProt P32320: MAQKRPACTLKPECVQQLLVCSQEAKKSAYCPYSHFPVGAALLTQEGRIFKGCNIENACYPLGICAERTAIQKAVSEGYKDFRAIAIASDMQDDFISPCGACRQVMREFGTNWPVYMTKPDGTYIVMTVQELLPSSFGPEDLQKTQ
UniProt P28370, whole entry: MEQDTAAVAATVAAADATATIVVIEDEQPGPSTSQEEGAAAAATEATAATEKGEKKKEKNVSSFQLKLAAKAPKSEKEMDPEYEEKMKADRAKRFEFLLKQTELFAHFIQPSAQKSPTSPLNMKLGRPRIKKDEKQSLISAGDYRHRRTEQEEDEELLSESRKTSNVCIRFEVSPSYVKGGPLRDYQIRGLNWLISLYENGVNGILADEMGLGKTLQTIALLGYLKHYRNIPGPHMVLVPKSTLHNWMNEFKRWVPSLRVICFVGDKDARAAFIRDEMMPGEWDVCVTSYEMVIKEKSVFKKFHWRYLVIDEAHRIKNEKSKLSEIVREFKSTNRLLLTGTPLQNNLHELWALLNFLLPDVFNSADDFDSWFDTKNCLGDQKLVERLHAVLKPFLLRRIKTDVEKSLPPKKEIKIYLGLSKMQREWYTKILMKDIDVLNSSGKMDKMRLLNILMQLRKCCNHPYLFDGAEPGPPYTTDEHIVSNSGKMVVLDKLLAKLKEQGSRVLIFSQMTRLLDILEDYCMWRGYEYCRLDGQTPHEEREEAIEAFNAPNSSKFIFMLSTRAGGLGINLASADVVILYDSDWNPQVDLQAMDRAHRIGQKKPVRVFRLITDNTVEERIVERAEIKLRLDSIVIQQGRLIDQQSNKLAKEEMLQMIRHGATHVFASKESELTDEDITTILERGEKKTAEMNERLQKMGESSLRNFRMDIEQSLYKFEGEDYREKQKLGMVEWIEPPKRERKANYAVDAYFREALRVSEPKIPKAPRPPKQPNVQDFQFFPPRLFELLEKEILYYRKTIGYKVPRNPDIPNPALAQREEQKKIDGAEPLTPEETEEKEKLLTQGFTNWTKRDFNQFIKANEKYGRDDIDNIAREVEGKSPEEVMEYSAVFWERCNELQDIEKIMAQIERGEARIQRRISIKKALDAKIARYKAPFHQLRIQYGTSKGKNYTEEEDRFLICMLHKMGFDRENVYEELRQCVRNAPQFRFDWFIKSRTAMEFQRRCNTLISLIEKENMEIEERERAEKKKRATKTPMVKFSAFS
UniProt P29372, whole entry: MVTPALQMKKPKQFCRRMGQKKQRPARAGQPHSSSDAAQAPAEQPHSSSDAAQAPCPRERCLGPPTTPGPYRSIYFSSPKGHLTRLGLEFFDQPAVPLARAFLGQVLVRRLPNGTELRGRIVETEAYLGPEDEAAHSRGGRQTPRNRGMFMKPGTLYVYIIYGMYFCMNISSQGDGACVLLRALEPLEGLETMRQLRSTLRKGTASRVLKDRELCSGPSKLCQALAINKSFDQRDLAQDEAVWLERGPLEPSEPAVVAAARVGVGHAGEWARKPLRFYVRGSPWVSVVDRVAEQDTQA
UniProt P30520: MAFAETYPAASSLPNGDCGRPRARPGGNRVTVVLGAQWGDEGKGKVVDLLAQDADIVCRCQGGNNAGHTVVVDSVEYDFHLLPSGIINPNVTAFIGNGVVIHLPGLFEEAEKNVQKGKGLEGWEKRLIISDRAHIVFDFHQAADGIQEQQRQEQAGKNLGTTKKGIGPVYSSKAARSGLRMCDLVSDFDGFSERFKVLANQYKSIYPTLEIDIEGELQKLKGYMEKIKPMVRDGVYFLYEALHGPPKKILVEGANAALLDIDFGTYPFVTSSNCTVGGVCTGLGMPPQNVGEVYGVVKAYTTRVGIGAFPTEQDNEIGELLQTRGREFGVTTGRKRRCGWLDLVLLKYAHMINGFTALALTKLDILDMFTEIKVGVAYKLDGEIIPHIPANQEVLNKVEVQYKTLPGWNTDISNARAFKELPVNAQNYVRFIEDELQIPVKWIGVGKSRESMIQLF
UniProt P43246, whole entry: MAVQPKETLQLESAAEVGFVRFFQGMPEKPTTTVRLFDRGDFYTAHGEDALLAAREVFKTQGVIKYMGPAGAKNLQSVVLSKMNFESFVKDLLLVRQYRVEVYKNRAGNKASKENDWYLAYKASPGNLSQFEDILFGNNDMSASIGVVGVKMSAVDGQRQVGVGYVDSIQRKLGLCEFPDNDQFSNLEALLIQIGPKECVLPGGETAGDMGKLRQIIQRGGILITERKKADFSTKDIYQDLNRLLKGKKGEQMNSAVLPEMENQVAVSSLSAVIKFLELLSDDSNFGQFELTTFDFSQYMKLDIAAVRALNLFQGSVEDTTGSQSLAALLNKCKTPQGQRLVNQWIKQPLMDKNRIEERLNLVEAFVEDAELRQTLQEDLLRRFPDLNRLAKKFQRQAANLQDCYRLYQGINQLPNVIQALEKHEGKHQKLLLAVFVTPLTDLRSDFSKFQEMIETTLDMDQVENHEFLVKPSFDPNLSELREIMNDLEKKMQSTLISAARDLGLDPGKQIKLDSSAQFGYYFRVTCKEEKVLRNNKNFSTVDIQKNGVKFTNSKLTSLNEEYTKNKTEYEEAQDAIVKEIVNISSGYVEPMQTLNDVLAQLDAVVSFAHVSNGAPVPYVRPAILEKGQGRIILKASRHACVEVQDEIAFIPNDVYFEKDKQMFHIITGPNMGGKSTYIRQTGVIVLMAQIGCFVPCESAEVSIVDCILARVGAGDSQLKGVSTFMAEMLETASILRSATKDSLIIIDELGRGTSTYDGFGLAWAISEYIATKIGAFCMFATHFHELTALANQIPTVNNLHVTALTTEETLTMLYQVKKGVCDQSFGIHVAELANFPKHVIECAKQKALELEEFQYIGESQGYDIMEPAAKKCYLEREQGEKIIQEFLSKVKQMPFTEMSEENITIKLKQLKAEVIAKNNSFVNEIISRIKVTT
UniProt P40692: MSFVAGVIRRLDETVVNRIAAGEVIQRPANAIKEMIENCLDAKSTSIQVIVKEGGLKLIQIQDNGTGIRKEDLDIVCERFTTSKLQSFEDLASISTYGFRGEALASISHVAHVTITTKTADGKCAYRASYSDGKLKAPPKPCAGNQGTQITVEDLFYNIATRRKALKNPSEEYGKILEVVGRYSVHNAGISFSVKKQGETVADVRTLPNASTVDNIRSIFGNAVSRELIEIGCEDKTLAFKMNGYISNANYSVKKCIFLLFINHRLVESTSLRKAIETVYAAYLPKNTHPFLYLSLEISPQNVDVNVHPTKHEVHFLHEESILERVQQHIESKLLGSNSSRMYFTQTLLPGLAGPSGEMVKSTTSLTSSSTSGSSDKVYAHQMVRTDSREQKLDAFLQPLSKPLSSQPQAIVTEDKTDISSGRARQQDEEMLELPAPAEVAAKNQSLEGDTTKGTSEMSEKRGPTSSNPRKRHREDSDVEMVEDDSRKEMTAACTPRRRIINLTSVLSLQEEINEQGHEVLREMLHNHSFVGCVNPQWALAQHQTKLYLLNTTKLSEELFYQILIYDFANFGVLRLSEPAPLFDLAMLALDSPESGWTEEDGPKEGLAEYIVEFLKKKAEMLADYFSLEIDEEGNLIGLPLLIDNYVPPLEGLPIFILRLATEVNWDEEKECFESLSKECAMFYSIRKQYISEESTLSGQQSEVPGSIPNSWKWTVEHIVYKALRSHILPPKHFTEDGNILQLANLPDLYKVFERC

Each target was assayed with CN[C@@H]1C[C@H]2O[C@@](C)([C@@H]1OC)n1c3ccccc3c3c4c(c5c6ccccc6n2c5c31)C(=O)NC4 [staurosporine] (assay: log2 fold change of tryptic peptide abundance, ligand vs vehicle (limited proteolysis) (log2 ratio); higher = more trypsin-susceptible (destabilized)). Settings: ligand concentration: 20 uM; sample: K562 cleared lysate; digestion: 4 min, 22 C (HT-PELSA RT4min, Orbitrap Astral).
With “CMPK1 (peptide sequence: IVPVEITISLLK, peptide start residue: 62) (UniProt P30085)” the log2 fold change was -0.133. “POLD1 (peptide sequence: ESMFGYHGHGPSPFLR, peptide start residue: 196) (UniProt P28340)” gave a log2 fold change of 0.211. “TXLNA (peptide sequence: LIEQYELREEHIDK, peptide start residue: 312) (UniProt P40222)” gave a log2 fold change of 0.689. “SOX5 (peptide sequence: RTCLVDGK, peptide start residue: 631) (UniProt P35711)” gave a log2 fold change of -0.544. “CDA (peptide sequence: AVSEGYKDFR, peptide start residue: 74) (UniProt P32320)” showed a log2 fold change of 0.0493. Target “SMARCA1 (peptide sequence: LITDNTVEER, peptide start residue: 622) (UniProt P28370)” has a log2 fold change of -0.285. “MPG (peptide sequence: ERCLGPPTTPGPYR, peptide start residue: 59) (UniProt P29372)” showed a log2 fold change of -0.198. In the case of “UniProt P42677 (peptide sequence: DLLHPSPEEEKRK, peptide start residue: 6)”, the log2 fold change is reported as 0.18. Target “UniProt P30520 (peptide sequence: ELPVNAQNYVR, peptide start residue: 420)” has a log2 fold change of 0.205. With “MSH2 (peptide sequence: LDSSAQFGYYFR, peptide start residue: 513) (UniProt P43246)” the log2 fold change was -0.744. Target “MLH1 (peptide sequence: ELIEIGCEDK, peptide start residue: 227) (UniProt P40692)” has a log2 fold change of -0.251.
